Data source: PubChem BioAssay AID1053208 (Peter MacCallum Cancer Centre, 2014)
Shown is one part, drawn at random, of about 17,000 deposited reagents. In the full data, 788 (4.7%) were called active. 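Calls rest on z-score classes alone; an extra cut-off of viability at most 70% of control was not applied to them.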 The numbers tell different reagents against one gene apart. A reagent listed more than once was tested more than once; the source does not tell the runs apart. Reagent sequences are not shown.

Purpose: 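Synthetic lethal interactions between gene loss and doxorubicin in osteosarcoma cells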 (primary screen)
Cells: mouse osteosarcoma cells, early-passage culture from an engineered mouse model of fibroblastic bone tumour
Reagents: siRNA pool against mouse genes, 40 nM
Time to read-out: about 120 h (48 h before drug, then 72 h with drug)
Challenge: doxorubicin 100 nM for 72 h, roughly 30-40% inhibitory dose
Detection: 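Viability read as ATP luminescence after 72 h of 100 nM doxorubicin or none, duplicate wells averaged, scaled to non-targeting siRNA, then expressed as robust z-scores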
Scale: viability z-score with doxorubicin and doxorubicin viability vs non-targeting: higher = more viable cells under doxorubicin; viability z-score without drug: higher = more viable cells with knock-down alone; z-score of drug to no-drug ratio: higher = less drug sensitisation by knock-down
Active means: 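a pool counts as active when its viability z-score with doxorubicin is -2 or below and its z-score without drug lies between -2 and 2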

no.	Target gene	pool no.	combined z-score class	viability z-score with doxorubicin	viability z-score without drug	z-score of drug to no-drug ratio	doxorubicin viability vs non-targeting	Call
1	Piezo2 (piezo-type mechanosensitive ion channel component 2)	1	no change with or without drug	0.67	0.67	0.34	1	inactive
2	Ran (RAN, member RAS oncogene family)	1	low cell count with and without drug	-6.52	-3.2	-5.73	0.36	inactive
3	Ctnnd2 (catenin delta 2)	1	no change with or without drug	1.35	0.17	1.35	1.06	inactive
4	Bmf (BCL2 modifying factor)	1	no change with or without drug	-1.46	-0.84	-0.9	0.81	inactive
5	Trip6 (thyroid hormone receptor interactor 6)	1	no change with or without drug	-1.57	-0.51	-1.24	0.8	inactive
6	Or10s1 (olfactory receptor family 10 subfamily S member 1)	1	no change with or without drug	-0.9	-0.51	-0.56	0.86	inactive
7	Tnfsf13b (tumor necrosis factor (ligand) superfamily, member 13b)	1	no change with or without drug	-0.34	-0.17	-0.11	0.91	inactive
8	Card14 (caspase recruitment domain family, member 14)	1	no change with or without drug	-1.24	-1.18	-0.45	0.83	inactive
9	Sh2d3c (SH2 domain containing 3C)	1	no change with or without drug	0.45	0.34	0.34	0.98	inactive
10	Slc51a	1	no change with or without drug	0.11	1.85	-0.9	0.95	inactive
11	Elf1 (E74 like ETS transcription factor 1)	1	no change with or without drug	1.12	1.69	0.11	1.04	inactive
12	Spock1	1	low cell count with doxorubicin only	-2.92	0.17	-3.04	0.68	active
13	2310057M21Rik (RIKEN cDNA 2310057M21 gene)	1	no change with or without drug	-1.24	0.51	-1.46	0.83	inactive
14	Or10ag56 (olfactory receptor family 10 subfamily AG member 56)	1	high cell count with and without drug	3.15	2.36	1.57	1.22	inactive
15	Arhgap20 (Rho GTPase activating protein 20)	1	no change with or without drug	1.12	0.84	0.67	1.04	inactive
16	Camp (cathelicidin antimicrobial peptide)	1	no change with or without drug	0.22	-0.84	1.01	0.96	inactive
17	Sec24d (SEC24 homolog D, COPII coat complex component)	1	no change with or without drug	1.46	0.51	1.24	1.07	inactive
18	Jpt1 (Jupiter microtubule associated homolog 1)	1	no change with or without drug	0.22	0.17	0.22	0.96	inactive
19	Eipr1 (EARP complex and GARP complex interacting protein 1)	1	low cell count with and without drug	-2.47	-2.19	-1.12	0.72	inactive
20	Erf (Ets2 repressor factor)	1	no change with or without drug	0.22	0.51	0	0.96	inactive
21	Rps4l (ribosomal protein S4-like)	1	no change with or without drug	0.22	-0.51	0.67	0.96	inactive
22	Vmn1r214 (vomeronasal 1 receptor 214)	1	no change with or without drug	-1.12	-0.17	-1.01	0.84	inactive
23	Polh (polymerase (DNA directed), eta (RAD 30 related))	1	no change with or without drug	-0.67	-0.17	-0.45	0.88	inactive
24	Pdgfd (platelet-derived growth factor, D polypeptide)	1	no change with or without drug	-1.91	-1.18	-1.12	0.77	inactive
25	2410002F23Rik (RIKEN cDNA 2410002F23 gene)	1	no change with or without drug	0.67	1.18	0	1	inactive
26	Tbc1d2 (TBC1 domain family, member 2)	1	no change with or without drug	-1.8	-0.67	-1.35	0.78	inactive
27	Popdc2 (popeye domain containing 2)	1	no change with or without drug	0	0	0.11	0.94	inactive
28	Cntn1 (contactin 1)	1	no change with or without drug	-0.9	-0.84	-0.22	0.86	inactive
29	Snta1 (syntrophin, acidic 1)	1	no change with or without drug	0.11	-0.51	0.56	0.95	inactive
30	Fxyd5 (FXYD domain-containing ion transport regulator 5)	1	no change with or without drug	-1.24	0.67	-1.57	0.83	inactive
31	Wwp1 (WW domain containing E3 ubiquitin protein ligase 1)	1	no change with or without drug	-0.67	-0.17	-0.45	0.88	inactive
32	Or4p23 (olfactory receptor family 4 subfamily P member 23)	1	no change with or without drug	1.01	0.51	0.79	1.03	inactive
33	Cd274 (CD274 antigen)	1	high cell count without drug only	-0.22	2.19	-1.46	0.92	inactive
34	E130016E03RIK	1	high cell count with doxorubicin only	2.02	1.18	1.35	1.12	inactive
35	Gvin1 (GTPase, very large interferon inducible 1)	1	no change with or without drug	-0.9	-0.51	-0.56	0.86	inactive
36	Avpr1b (arginine vasopressin receptor 1B)	1	no change with or without drug	0	0.17	0	0.94	inactive
37	Avpr1b (arginine vasopressin receptor 1B)	1	no change with or without drug	1.35	0.17	1.35	1.06	inactive
38	Rnaseh2c (ribonuclease H2, subunit C)	1	no change with or without drug	-0.45	-0.51	0	0.9	inactive
39	Or7a42 (olfactory receptor family 7 subfamily A member 42)	1	no change with or without drug	-1.12	-0.17	-1.01	0.84	inactive
40	Tbx19 (T-box 19)	1	no change with or without drug	-0.45	1.85	-1.46	0.9	inactive
41	Nanp (N-acetylneuraminic acid phosphatase)	1	no change with or without drug	0.22	-1.01	1.12	0.96	inactive
42	Abcd3 (ATP-binding cassette, sub-family D member 3)	1	no change with or without drug	0	-0.17	0.22	0.94	inactive
43	Ear3 (eosinophil-associated, ribonuclease A family, member 3)	1	no change with or without drug	0.67	1.18	0	1	inactive
44	Myt1 (myelin transcription factor 1)	1	no change with or without drug	1.69	-0.17	2.02	1.09	inactive
45	Saxo2 (stabilizer of axonemal microtubules 2)	1	no change with or without drug	0.34	-0.51	0.79	0.97	inactive
46	Vps72 (vacuolar protein sorting 72)	1	no change with or without drug	1.12	1.01	0.56	1.04	inactive
47	Ece2 (endothelin converting enzyme 2)	1	no change with or without drug	-0.45	-0.51	0	0.9	inactive
48	Ece2 (endothelin converting enzyme 2)	2	no change with or without drug	-0.45	-0.17	-0.22	0.9	inactive
49	Clcn1 (chloride channel, voltage-sensitive 1)	1	no change with or without drug	-0.45	-0.17	-0.22	0.9	inactive
50	Hspa4 (heat shock protein family A (Hsp70) member 4)	1	no change with or without drug	-0.56	0.51	-0.79	0.89	inactive
51	Ttc39b (tetratricopeptide repeat domain 39B)	1	high cell count with doxorubicin only	2.36	0.84	1.91	1.15	inactive
52	1700001F09Rik (RIKEN cDNA 1700001F09 gene)	1	no change with or without drug	-0.67	0.51	-0.9	0.88	inactive
53	Krtap19-1 (keratin associated protein 19-1)	1	low cell count with doxorubicin only	-2.92	-0.84	-2.47	0.68	active
54	Tpra1 (transmembrane protein, adipocyte asscociated 1)	1	no change with or without drug	-1.57	-1.01	-0.9	0.8	inactive
55	Chrm3 (cholinergic receptor, muscarinic 3, cardiac)	1	no change with or without drug	0	1.52	-0.9	0.94	inactive
56	Fgd1 (FYVE, RhoGEF and PH domain containing 1)	1	no change with or without drug	-0.45	0.51	-0.67	0.9	inactive
57	Padi1 (peptidyl arginine deiminase, type I)	1	no change with or without drug	-0.79	-0.84	-0.11	0.87	inactive
58	Lrrc4c (leucine rich repeat containing 4C)	1	no change with or without drug	0.45	0.67	0.11	0.98	inactive
59	Gna12 (guanine nucleotide binding protein, alpha 12)	1	no change with or without drug	-1.91	-0.67	-1.46	0.77	inactive
60	Kcnj15	1	no change with or without drug	0.56	-0.17	0.79	0.99	inactive
61	Tmem178 (transmembrane protein 178)	1	no change with or without drug	0.56	0.67	0.22	0.99	inactive
62	Proser1 (proline and serine rich 1)	1	high cell count without drug only	0.9	2.02	-0.34	1.02	inactive
63	Smim3 (small integral membrane protein 3)	1	no change with or without drug	-0.22	-0.67	0.34	0.92	inactive
